Laboratory results reported in article PMC10564737, “Structure-based design of a phosphotyrosine-masked covalent ligand targeting the E3 ligase SOCS2” (Nature Communications, 2023).
“And” between values parts separate entries of the source, which are not always exact repeats. Identical values can stand only once. The source gives many values for each of these; only a part stands here.

By UniProt entry, the sequences of proteins in these tests, tags left out. Residues count along the entry.
UniProt O14508, 32-198: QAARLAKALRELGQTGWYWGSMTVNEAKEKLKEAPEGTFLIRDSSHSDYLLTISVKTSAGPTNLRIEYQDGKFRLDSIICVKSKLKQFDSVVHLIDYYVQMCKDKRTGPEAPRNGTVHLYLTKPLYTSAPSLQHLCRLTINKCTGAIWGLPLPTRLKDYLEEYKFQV

Target: T1, SBC2 (Homo sapiens, UniProt O14508)
T1 construct: SOCS2 (amino acids 32–198); His6 (N, cleaved yes); made in house; host or cells: E. coli BL21(DE3)
Assay: Covalent fluorescence polarization (FP) probe displacement assay
Assay type: binding
Text: With the specific covalent modification of Cys111 established, we decided to fully characterize MN551 as a covalent SOCS2 inhibitor. […] (Fig. 2g, h, Supplementary Fig. 9). Due to the covalent nature of the competing inhibitor, a time-dependent reduction in the fraction of protein-bound probe is observed. […] This value illustrates reasonable specificity for a covalent inhibitor, with nonetheless scope for future optimization. In addition to characterizing the kinetic covalency parameters, we have also assessed the stability of the MN551 by monitoring its reactivity (half-life >70 min) with reduced glutathione (GSH) (Supplementary Fig. 10)[35].
To monitor the SBC2-ligand binding kinetics we designed a fluorescein-labeled small-molecule probe - compound 26. The fluorescence polarization (anisotropy) of a threefold serial dilution of 50 µM SBC2 in 10 nM of the probe in 100 mM HEPES pH 7.5, 50 mM NaCl, 0.5 mM TCEP, 2% DMSO was measured to determine the KL (Supplementary Fig. 9A) (BMG Labtech PHERAstar – firmware v1.33). Protein titration and the curves were fitted using GraphPad Prism 9, using one-site fitting models to determine the probe binding constant, KL. Samples were run in triplicate in 384 well plates, using a total volume per well of 16 μL. The bound fraction of the probe is measure using the equation:1 Fb=Af−A/Af−Ab Where,
A time-dependent reduction in probe anisotropy were measured for a 2-fold serial dilution of […] compound MN551 in 10 nM probe +300 μM SBC2. To determine the initial reversible binding affinity, the initial bound fraction of the probe at time = 0, Fbo (the y-intercept in Fb v/s Time plot, Supplementary Fig. 9B) was plotted against MN551 concentration, and the obtained IC50 is then converted to Ki (Supplementary Fig. 9C)[17]. The slope from Fb versus time graph when divided by Fbo gives rate of covalency, kobs. A plot of kobs v/s MN551 concentration using Michaelis–Menten model of GraphPad Prism 9, provides the parameters kinact (maximum potential rate of inactivation) and KI (concentration of MN551 at which kobs = kinact/2) (Supplementary Fig. 9D, E).
The observed first-order rate constant, kobs is related to KI and kinact by the equation:2 kobs=kinactI/KI+I
At [I]«[KI] the above equation is converted to3 […]
The slope from the plot of kobs against concentration of MN551 gives us the covalent efficiency parameter kinact/KI (Supp Fig. 9F)[30],[33].

[1] = MN551 94.8645 nM; Cycle 14 (65 min); n=1
[2] = MN551 94.8645 nM; Cycle 15 (70 min); n=1
[3] = MN551 94.8645 nM; Cycle 16 (75 min); n=1
[4] = MN551 97.6562 nM, Cycle 8 (35 min)
[5] = MN551 97.6562 nM, Cycle 9 (40 min)
[6] = MN551 97.6562 nM, Cycle 10 (45 min)
[7] = MN551 97.6562 nM; Cycle 6 (25 min)
[8] = MN551 97.6562 nM; Cycle 7 (30 min)
[9] = MN551 97.6562 nM; Cycle 8 (35 min)
[10] = MN551 97.6562 nM; Cycle 9 (40 min)
[11] = MN551 97.6562 nM; Cycle 10 (45 min)
[12] = MN551 97.6562 nM; Cycle 12 (55 min); n=1
[13] = MN551 97.6562 nM; Cycle 13 (60 min); n=1
[14] = MN551 97.6562 nM; Cycle 14 (65 min); n=1
[15] = MN551 97.6562 nM; Cycle 15 (70 min); n=1
[16] = MN551 97.6562 nM; Cycle 16 (75 min); n=1
[17] = MN551 132.81 nM, Cycle 8 (35 min)
[18] = MN551 132.81 nM, Cycle 9 (40 min)
[19] = MN551 132.81 nM, Cycle 10 (45 min)
[20] = MN551 132.81 nM, Cycle 11 (50 min)
[21] = MN551 132.81 nM, Cycle 16 (75 min), n=1
[22] = MN551 132.81 nM, Cycle 17 (80 min), n=1
[23] = MN551 132.81 nM, Cycle 18 (85 min), n=1
[24] = MN551 132.81 nM; Cycle 7 (30 min)
[25] = MN551 132.81 nM; Cycle 8 (35 min)

O=C(CCl)Nc1cccc(CNC(=O)[C@H](Cc2ccc(OP(=O)(O)O)cc2)NC(=O)Cc2ccc(F)cc2)c1 [MN551]
Anisotropy [1]: 267.2 and 260.7 and 259.4
Anisotropy based on Raw Data (485) [1]: 272.6 and 273.5 and 271.2
Anisotropy [2]: 266.7 and 258.8 and 259.1
Anisotropy based on Raw Data (485) [2]: 270.1 and 271.9
Anisotropy [3]: 267.4 and 256.2 and 257.5
Anisotropy based on Raw Data (485) [3]: 269.4 and 270.5 and 267.5
Anisotropy data 485,520,520 (MN551 94.8645 nM; Cycle 19 (90 min); n=1): 271.1 and 270.1 and 264.5
Anisotropy data 485,520,520 (MN551 94.8645 nM; Cycle 20 (95 min); n=1): 269.6 and 267.9 and 263.4
Fb (MN551 97.6562 nM, Cycle 7 (30 min)): 0.8526 and 0.9724 and 0.9434
Anisotropy based on Raw Data (485) [4]: 279.9 and 281.1 and 276.7
Fb [4]: 0.8704 and 0.9742 and 0.944
Anisotropy based on Raw Data (485) [5]: 277.4 and 278.3 and 274.8
Fb [5]: 0.8422 and 0.9665 and 0.9391
Anisotropy based on Raw Data (485) [6]: 278.2 and 278 and 273.2
Fb [6]: 0.8481 and 0.9518 and 0.942
Anisotropy based on Raw Data (485) (MN551 97.6562 nM, Cycle 11 (50 min)): 277.4 and 278.8 and 270
Anisotropy (MN551 97.6562 nM, Cycle 13 (60 min), n=1): 277.6 and 278.4
Anisotropy (MN551 97.6562 nM, Cycle 14 (65 min), n=1): 276 and 278.5 and 272.7
Anisotropy (MN551 97.6562 nM, Cycle 15 (70 min), n=1): 276.3 and 276.5 and 273.3
Anisotropy (MN551 97.6562 nM, Cycle 16 (75 min), n=1): 276.1 and 276.2 and 272.3
Anisotropy (MN551 97.6562 nM, Cycle 17 (80 min), n=1): 275.7 and 275.8 and 270.2
Fb, fraction bound (MN551 97.6562 nM; Cycle 3 (10 min)): 1.028 and 1.02 and 0.9982
Fb, fraction bound (MN551 97.6562 nM; Cycle 4 (15 min)): 1.01 and 1.014 and 0.9845
Fb, fraction bound (MN551 97.6562 nM; Cycle 5 (20 min)): 1.005 and 1.078 and 0.9835
Anisotropy data 485,520,520 [7]: 280 and 277 and 279.2
Fb [7]: 1.001 and 0.9519 and 0.9691
Fb, fraction bound [7]: 1.002 and 1.058 and 0.979
Anisotropy data 485,520,520 [8]: 276.3 and 277.9
Fb [8]: 1.0109 and 0.9669 and 1.006
Fb, fraction bound [8]: 1.02 and 1.03 and 1.007
Anisotropy [9]: 281.7 and 281.5 and 277.6
Anisotropy data 485,520,520 [9]: 278.5 and 276 and 278
Fb [9]: 1.014 and 0.9552 and 0.9991 and 1.021 and 1.008 and 0.9812
Anisotropy [10]: 281.1 and 282.7 and 280.1
Anisotropy data 485,520,520 [10]: 276 and 273.5 and 277.4
Fb [10]: 1.014 and 0.9453 and 0.9991 and 1.002 and 1.036 and 1.016
Anisotropy [11]: 279.2 and 282.3 and 276.3
Anisotropy data 485,520,520 [11]: 274 and 272 and 275
Fb [11]: 1.011 and 0.9428 and 0.9885 and 0.9942 and 1.046 and 0.9833
Anisotropy (MN551 97.6562 nM; Cycle 11 (50 min); n=1): 274 and 273.6 and 273.5
Anisotropy [12]: 274 and 271.6 and 272.1
Anisotropy based on Raw Data (485) [12]: 277.7 and 279 and 270.9
Anisotropy [13]: 271.3 and 272 and 270.5
Anisotropy based on Raw Data (485) [13]: 277.8 and 276.4 and 273.2
Anisotropy [14]: 274.6 and 269.4 and 270.7
Anisotropy based on Raw Data (485) [14]: 277.3 and 276.1 and 269.7
Anisotropy [15]: 272.4 and 269 and 267.6
Anisotropy based on Raw Data (485) [15]: 273 and 276.1 and 270
Anisotropy [16]: 270.8 and 268.2
Anisotropy based on Raw Data (485) [16]: 272.7 and 274.8 and 268.7
Anisotropy data 485,520,520 (MN551 97.6562 nM; Cycle 19 (90 min); n=1): 273.3 and 275.9 and 270.9
Anisotropy data 485,520,520 (MN551 97.6562 nM; Cycle 20 (95 min); n=1): 271.7 and 272.1 and 268.6
Fb (MN551 132.81 nM, Cycle 7 (30 min)): 0.8938 and 0.8581 and 0.9072
Anisotropy based on Raw Data (485) [17]: 278.1 and 277.5 and 269.6
Fb [17]: 0.8824 and 0.8731 and 0.8744
Anisotropy based on Raw Data (485) [18]: 278.3 and 277.1 and 270.5
Fb [18]: 0.8503 and 0.8817 and 0.8713
Anisotropy based on Raw Data (485) [19]: 276.8 and 275.5 and 269.1
Fb [19]: 0.9053 and 0.9152 and 0.8956
Anisotropy based on Raw Data (485) [20]: 276.8 and 273.8 and 269.7
Fb [20]: 0.8769 and 0.8476 and 0.9061
Anisotropy (MN551 132.81 nM, Cycle 13 (60 min), n=1): 271.9 and 271.1 and 267.7
Anisotropy (MN551 132.81 nM, Cycle 14 (65 min), n=1): 271.2 and 270.4 and 268.8
Anisotropy (MN551 132.81 nM, Cycle 15 (70 min), n=1): 269.3 and 271.2 and 266.4
Anisotropy [21]: 268.9 and 269.2 and 269.3
Normalised anisotropy (0 nM MN551 = 1, free probe = 0) [21]: 0.9377 and 0.9642 and 0.9598
Anisotropy [22]: 269.4 and 269.2 and 265.8
Normalised anisotropy (0 nM MN551 = 1, free probe = 0) [22]: 0.9673 and 0.9565 and 0.9541
Anisotropy [23]: 269.6 and 268.6 and 266.1
Normalised anisotropy (0 nM MN551 = 1, free probe = 0) [23]: 0.9797 and 0.9655 and 0.9841
Fb, fraction bound (MN551 132.81 nM; Cycle 4 (15 min)): 1.013 and 0.9868 and 1.0124
Fb, fraction bound (MN551 132.81 nM; Cycle 5 (20 min)): 0.9971 and 0.9831 and 0.9825
Fb, fraction bound (MN551 132.81 nM; Cycle 6 (25 min)): 0.9879 and 0.9837 and 0.9753
Anisotropy data 485,520,520 [24]: 271.5 and 262.4 and 267
Fb [24]: 0.9912 and 1.021 and 1.043
Fb, fraction bound [24]: 0.9586 and 0.971 and 0.9924
Anisotropy [25]: 278.1 and 274.8 and 272.7
Anisotropy data 485,520,520 [25]: 271 and 263.9 and 265.1
Fb [25]: 0.9923 and 1.029 and 1.03 and 1.014 and 0.9576 and 0.9718
Anisotropy (MN551 132.81 nM; Cycle 9 (40 min)): 274.1 and 273.8 and 271.9
